This assay has as its target T1, Tripartite motif-containing protein 46, Myc-tagged (TRIM46-Myc) (UniProt Q7Z4K8).
T1 sequence: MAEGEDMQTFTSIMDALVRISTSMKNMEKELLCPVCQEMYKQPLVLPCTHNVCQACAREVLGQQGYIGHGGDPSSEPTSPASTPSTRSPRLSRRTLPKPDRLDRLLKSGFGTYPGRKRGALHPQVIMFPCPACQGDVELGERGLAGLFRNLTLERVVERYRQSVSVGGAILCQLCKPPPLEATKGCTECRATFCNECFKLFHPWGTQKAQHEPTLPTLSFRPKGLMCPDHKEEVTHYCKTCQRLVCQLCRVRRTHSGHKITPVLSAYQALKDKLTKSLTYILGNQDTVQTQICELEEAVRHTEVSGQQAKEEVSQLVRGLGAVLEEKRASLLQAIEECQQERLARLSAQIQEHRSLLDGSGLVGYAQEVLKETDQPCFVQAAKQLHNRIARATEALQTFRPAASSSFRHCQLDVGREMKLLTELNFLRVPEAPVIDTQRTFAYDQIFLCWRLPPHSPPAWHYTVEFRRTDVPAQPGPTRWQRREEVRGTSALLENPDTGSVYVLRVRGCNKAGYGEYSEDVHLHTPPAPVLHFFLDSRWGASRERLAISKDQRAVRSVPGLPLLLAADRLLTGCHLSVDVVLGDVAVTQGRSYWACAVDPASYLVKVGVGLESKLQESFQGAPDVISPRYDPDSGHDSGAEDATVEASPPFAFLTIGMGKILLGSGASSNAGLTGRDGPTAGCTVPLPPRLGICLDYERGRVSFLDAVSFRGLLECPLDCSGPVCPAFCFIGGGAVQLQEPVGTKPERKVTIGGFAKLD
In words: co-IP.

Results are given in words; binding and its absence hold for the method and conditions named. In cells and extracts the contact can be indirect. Some binding calls cover weakened binding; strength is not graded here. Tags and fused reporters may be left off the sequences shown.

B1: TANK-binding kinase 1, FLAG-tagged (TBK1-Flag) (protein, UniProt Q9UHD2 1-729)
chain: MQSTSNHLWLLSDILGQGATANVFRGRHKKTGDLFAIKVFNNISFLRPVDVQMREFEVLKKLNHKNIVKLFAIEEETTTRHKVLIMEFCPCGSLYTVLEEPSNAYGLPESEFLIVLRDVVGGMNHLRENGIVHRDIKPGNIMRVIGEDGQSVYKLTDFGAARELEDDEQFVSLYGTEEYLHPDMYERAVLRKDHQKKYGATVDLWSIGVTFYHAATGSLPFRPFEGPRRNKEVMYKIITGKPSGAISGVQKAENGPIDWSGDMPVSCSLSRGLQVLLTPVLANILEADQEKCWGFDQFFAETSDILHRMVIHVFSLQQMTAHKIYIHSYNTATIFHELVYKQTKIISSNQELIYEGRRLVLEPGRLAQHFPKTTEENPIFVVSREPLNTIGLIYEKISLPKVHPRYDLDGDASMAKAITGVVCYACRIASTLLLYQELMRKGIRWLIELIKDDYNETVHKKTEVVITLDFCIRNIEKTVKVYEKLMKINLEAAELGEISDIHTKLLRLSSSQGTIETSLQDIDSRLSPGGSLADAWAHQEGTHPKDRNVEKLQVLLNCMTEIYYQFKKDKAERRLAYNEEQIHKFDKQKLYYHATKAMTHFTDECVKKYEAFLNKSEEWIRKMLHLRKQLLSLTNQCFDIEEEVSKYQEYTNELQETLPQKMFTASSGIKHTMTPIYPSSNTLVEMTLGMKKLKEEMEGVVKELAENNHILERFGSLTMDGGLRNVDCL
Consider B1, for which the binding result is reported as “binds”.

Source of the values: PMC9632593.
